Assay results published in patent US11013730B1, “Composition comprising selenazol or thiazalone derivatives and silver and method of treatment therewith” (Thioredoxin Systems AB, priority 2014, dated 2021).
Like-named read-outs stand apart in the source and are kept apart here. For part of these data: The name of at least one read-out is uncertain. For part of these data: At least one structure is not confirmed: it was looked up by name or label, or the drawing left a doubt.

Tests used:
[1] = target: T1, Mammalian TrxR (Homo sapiens, UniProt Q16881); details: from ref (3) / (32); cited from earlier work
T1 sequence (Q16881 151-649 limits assumed): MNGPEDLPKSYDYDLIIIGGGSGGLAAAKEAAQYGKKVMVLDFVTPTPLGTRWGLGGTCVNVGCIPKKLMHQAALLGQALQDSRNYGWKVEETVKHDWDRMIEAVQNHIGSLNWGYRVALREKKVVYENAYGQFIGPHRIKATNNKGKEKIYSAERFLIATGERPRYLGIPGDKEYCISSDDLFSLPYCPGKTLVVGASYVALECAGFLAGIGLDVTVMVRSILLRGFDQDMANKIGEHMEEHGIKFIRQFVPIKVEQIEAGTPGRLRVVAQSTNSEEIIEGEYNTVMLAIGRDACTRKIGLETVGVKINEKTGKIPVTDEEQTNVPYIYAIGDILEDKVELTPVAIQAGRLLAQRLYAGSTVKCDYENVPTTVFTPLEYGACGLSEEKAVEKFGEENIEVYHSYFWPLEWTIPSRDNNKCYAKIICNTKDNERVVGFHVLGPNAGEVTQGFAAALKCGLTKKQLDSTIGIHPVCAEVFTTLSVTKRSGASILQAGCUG

[2] = target: T1, Mammalian TrxR; assay: Kinetic parameters with mammalian TrxR; format: biochemical; details: sulphur analogues

Compound	kcat/KM, mammalian TrxR [1] [M⁻¹ s⁻¹]	kcat/KM, mammalian TrxR [2] [M⁻¹ s⁻¹]
O=C(Nc1ccccc1)c1ccccc1[Se][Se]c1ccccc1C(=O)Nc1ccccc1 [(EbSe)2]	33000	–
O=c1c2ccccc2sn1-c1ccccc1 [EbS]	–	9.33e+06
O=c1c2ccccc2[se]n1-c1ccccc1 [EbSe 6, 2-phenyl-1,2-benzisoselenazol-3(2H)-one]	3.92e+06	–
